# Binding screen against folded nucleic acids

Targets, with sequences 5′ to 3′:
SAM-II: SAM-II riboswitch RNA pseudoknot, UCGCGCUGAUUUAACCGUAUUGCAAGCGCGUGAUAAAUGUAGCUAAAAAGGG. Hit rate about 1% of about 21,000 compounds.
PreQ1: PreQ1 riboswitch RNA pseudoknot, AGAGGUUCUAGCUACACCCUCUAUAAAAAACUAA. From B. subtilis. Hit rate about 0.7% of about 24,000 compounds.
TPP: TPP riboswitch RNA three-way junction, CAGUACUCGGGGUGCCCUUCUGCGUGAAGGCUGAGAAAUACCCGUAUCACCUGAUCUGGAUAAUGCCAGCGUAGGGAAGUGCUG. Hit rate about 0.7% of about 24,000 compounds.

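Compounds were printed on reactive glass slides in duplicate spots, a dye-labelled oligonucleotide was laid over them, and the fluorescence left after washing was read. For the PreQ1, TPP and SAM-II riboswitches the laboratory earlier reported (doi:10.1038/s41467-019-09493-3) 1 µM RNA, 2 h, and a rule that included a mean Z-score above 3 (spot signal-to-noise against the whole library), a score well above that on a control array, and duplicate spots agreeing (coefficient of variation under 100). The data file gives only the calls; its cut-offs may differ, and compounds hitting several targets are kept. The calls come from the array alone, and fixing a compound to the slide can hide its binding.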
A compound is marked 1 if it was called a hit and 0 if it was screened but was not.
The compounds are a random part of those screened.
A dash means that no call is listed here.

SMILES	SAM-II	PreQ1	TPP
N#CC1=C(N)OC2=C(C(=O)CC(c3ccccc3)C2)C1c1ccccc1Br (stereo not given)	0	0	0
Brc1cccc(CNCCc2ccc3c(c2)OCO3)c1	0	0	0
Clc1ccc(CCNc2nc3ccccc3c3nncn23)cc1	0	0	0
COc1ccccc1[C@H]1CN(C(=O)[C@H]2[C@@H]3CNC[C@@H]32)[C@@H]2C3CCN(CC3)[C@H]12	0	0	0
O=C(Nc1cccc(Cl)c1)Nc1nccs1	0	0	0
Cc1nc2nc(O)cc(N)n2n1	0	0	0
Nc1nc2c(s1)C(c1ccc(F)c(Br)c1)CC(=O)N2 (stereo not given)	1	0	0
CCOC(=O)C1(CCc2ccccc2)CCCNC1 (stereo not given)	0	0	0
Nc1c(C(=O)CCC(=O)O)oc2ccc(Cl)cc12	0	0	0
COc1ccc(-c2cnc3cc(-c4ccc(Cl)cc4)nn3c2N)cc1OC	0	0	0
Nc1nc(-c2ccccc2F)cs1	0	0	0
CN(CC(O)COc1cccc(CN2CCC(F)CC2)c1)C1CCCCC1 (stereo not given)	0	0	0
COc1cc(N)c(N2CCOCC2)cc1OC	0	0	0
COc1ccc(-c2cc3nc(C)cc(NC(C)c4ccccc4)n3n2)cc1OC (stereo not given)	-	0	0
O=C(O)[C@@]12CN(CCO)C[C@@H]1CN(Cc1ccc(-c3ccccc3)s1)C2	0	0	0
CC(C)c1nc(CCN(C)C(=O)CN2C[C@@H]3CC[C@H](CC2=O)N3)no1	0	0	0
O=C(NCc1cc2n(n1)CCCNC2)C(c1ccccc1)c1ccccc1	0	0	0
Clc1ccc(CCNc2ncnc3c2nc2n3CCCC2)cc1	-	0	0
CN(C)CCn1ccnc1C1CCN(C(=O)CC2CNCCO2)CC1 (stereo not given)	0	0	0
CCc1cnc(NCCN2CCCC(CO)C2)nc1 (stereo not given)	0	0	0
O=C(Cc1cc(C(F)(F)F)cc(C(F)(F)F)c1)N1CC[C@H](CO)[C@H](O)C1	0	0	0
Cc1ccc(N2C(=O)CC(NC3CCCC(C)C3C)C2=O)cc1 (stereo not given)	0	0	0
Cc1nc2nc(C(F)(F)F)[nH]c2nc1C	0	0	0
C=COC(=O)c1sc2nc(C)cc(C)c2c1N	0	0	0
N#CC1=C(N)OC2=C(C(=O)c3ccccc3C2=O)C1c1cccc(F)c1 (stereo not given)	0	0	0
Cc1ccc(S(=O)(=O)NC2CCCCC2Nc2ccc(F)cc2)cc1 (stereo not given)	-	0	0
Brc1ccc(-c2ccc(CNCCCN3CCOCC3)o2)cc1	-	0	0
N#CC1=C(N)Oc2ccc3ccccc3c2C1c1ccccc1F (stereo not given)	0	0	0
Cc1nc2cc(CCO)ccc2s1	0	0	0
COC(=O)c1ccccc1Nc1c(-c2ccc(O)cc2)nc2cnccn12	-	0	0
CCOC(=O)c1ccc(Nc2c(-c3ccccc3O)nc3cnccn23)cc1	-	0	0
Cc1ccc2c(O)nc(Nc3nc(C)cc(-c4ccccc4)n3)nc2c1	0	0	0
NCCCN1CCN(c2ccccc2)CC1	0	0	0
Cc1cccn2c(=O)c(CN3CCC4(CCNCC4)C3)c(Cl)nc12	0	0	0
CCOC(=O)c1ccc2nc(C)cc(Nc3ccc(N(C)C)cc3)c2c1	0	0	0
CC(C)C(=O)Nc1cccc(-c2cccc3c2CCNC3)c1	0	0	0
CC1(C)CN(C(=O)c2cn(CC3CCCNC3)nn2)CCO1 (stereo not given)	0	0	0
O=C(CCn1cnnc1)N1CCC2(CC1)c1ccccc1CC2O (stereo not given)	0	0	0
CCn1cc(-c2cc(O)cc(CCC3CCCCN3)c2)c(C)n1 (stereo not given)	0	0	0
Nc1ccc(-c2n[nH]c(-c3ccc(F)cc3)n2)cc1	0	0	0
O=S(=O)(c1ccc(Cl)cc1)c1nc(-c2ccco2)oc1NCCCn1ccnc1	-	0	0
CC(C)(C)NCC(O)COc1cccc2c1CC(O)C(O)C2 (stereo not given)	0	0	0
CCN(CC)c1ccc(Nc2cc(C)nc(C)n2)cc1	-	0	0
CSc1c(N(C)C)c(=O)c1=S	0	0	0
COc1ccc(C(=O)c2sc3nc(-c4ccncc4)ccc3c2N)cc1	0	0	0
Cc1ccc(C(=O)c2oc3ccccc3c2N)cc1	0	0	0
CCC(CO)NC(=O)c1nn(-c2ccc(C)cc2)nc1CO (stereo not given)	-	0	0
CCOc1ccccc1Nc1nc2ccccc2nc1NS(=O)(=O)c1ccccc1	0	0	0
Nc1ccccc1C(=O)Nc1ccc(Cl)cc1Cl	0	0	0
O=C(c1ccc2c(c1)CN(CCN1CCCCC1)C2=O)N1C[C@@H]2CCN[C@@H]2C1	0	0	0
O=C(O)c1ccc(Nc2nc(-c3cccnc3)cs2)cc1	0	0	0
CCCCn1cnc2c(=S)nc(N)[nH]c21	0	0	0
CC(=NNC(=O)c1ccc(CO)nc1)c1ccc(Br)cc1	0	0	0
Cc1cc(C(F)(F)F)cc(N2C[C@H](NC(=O)CO)[C@@H](C3CC3)C2)n1	0	0	0
COc1ccc(OC)c(C(O)CSc2nc3cc(C)ccc3n2C)c1 (stereo not given)	0	0	0
Cc1ccc(Nc2cc(N3CCN(C(=O)c4cccc(Br)c4)CC3)nc(C)n2)cc1	-	0	0
Cc1c(Cc2ccccc2)sc(N)c1C(N)=O	0	0	0
COc1ccccc1CNC(=O)c1nccnc1CO	0	0	0
CCOC(=O)c1coc(N2CCC3(CC2)Nc2ccccc2NC3=O)n1	0	0	0
CN1CCN(CC(O)COCCC23CC4CC(CC(C4)C2)C3)CC1.Cl.Cl (stereo not given)	0	0	0
COc1cc(Cl)ccc1NCc1cn2ccccc2n1	0	0	0

For reference, 6 entries once more:

SMILES	SAM-II	PreQ1	TPP
CCOC(=O)c1ccc(Nc2c(-c3ccccc3O)nc3cnccn23)cc1	-	0	0
CC1(C)CN(C(=O)c2cn(CC3CCCNC3)nn2)CCO1 (stereo not given)	0	0	0
CCOC(=O)c1coc(N2CCC3(CC2)Nc2ccccc2NC3=O)n1	0	0	0
O=S(=O)(c1ccc(Cl)cc1)c1nc(-c2ccco2)oc1NCCCn1ccnc1	-	0	0
O=C(O)c1ccc(Nc2nc(-c3cccnc3)cs2)cc1	0	0	0
Cc1nc2nc(O)cc(N)n2n1	0	0	0

Calls as published in the ROBIN set (doi:10.1002/anie.202211358).